Assay results from the supplement of paper PMC6078165.
The reference is the same well before dosing, and untreated signal decays as well.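 Fibroblast labels name human fibroblasts: mostly primary ones from tissues such as uterus (C12385, HUF), lung (H6013), bone (Hs27A), adrenal (HADF) and skin (WS1), plus mammary HMF and breast cancer-associated Hs343T. The cancer cells are basal-like or mesenchymal-like triple-negative breast cancer lines. The paper calls a changed response a hit when it shifts by more than 3x the replicate standard deviation. The tissue of the other fibroblasts is not given here.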

System: HCC1143
Test: relative JC-1 red fluorescence (viability) vs pre-drug, coculture with fibroblast (fraction); higher = more viable cancer cells
Protocol: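 JC-1 labelled TNBC cells cocultured 1:1 (1,500 cells each) with CellTrace Violet stained primary or stromal fibroblasts in 384-well plates in FluoroBrite medium, treated with one of 42 anticancer drugs at 0.1, 1, 10 or 100 uM. JC-1 red fluorescence (mitochondrial integrity in cancer cells only) was read by plate reader every 8 h for 72 h. Values are normalised to each well's pre-drug value. The stock of one drug was tenfold lower, so its dose labels may be too high.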

C[C@]12CC[C@@H]3c4ccc(O)cc4C[C@@H](CCCCCCCCC[S+]([O-])CCCC(F)(F)C(F)(F)F)[C@H]3[C@@H]1CC[C@@H]2O (stereo partly specified) [Fulvestrant]
relative JC-1 red fluorescence
Conditions	8 h	16 h	24 h	32 h	40 h	48 h	56 h	64 h	72 h
0.1 µM, coculture fibroblast: C12385	0.855	0.771	0.683	0.606	0.539	0.49	0.4358	0.3886	0.3685
0.1 µM, coculture fibroblast: H6013	0.801	0.727	0.706	0.707	0.629	0.606	0.567	0.536	0.514
0.1 µM, coculture fibroblast: H6019	0.805	0.708	0.659	0.6	0.558	0.534	0.476	0.437	0.402
0.1 µM, coculture fibroblast: H6076	0.804	0.765	0.705	0.69	0.625	0.6149	0.5824	0.559	0.576
0.1 µM, coculture fibroblast: H6231	0.8075	0.807	0.723	0.629	0.632	0.605	0.5674	0.5238	0.499
0.1 µM, coculture fibroblast: HADF	0.735	0.6563	0.62333	0.627	0.541	0.5177	0.4802	0.447	0.439
0.1 µM, coculture fibroblast: HCFa	0.776	0.69	0.651	0.631	0.542	0.51	0.47	0.43	0.403
0.1 µM, coculture fibroblast: HCPF	0.802	0.775	0.697	0.643	0.592	0.552	0.508	0.475	0.464
0.1 µM, coculture fibroblast: HHSteC	0.836	0.756	0.722	0.7	0.622	0.586	0.548	0.518	0.478
0.1 µM, coculture fibroblast: HMF	0.804	0.813	0.747	0.707	0.665	0.644	0.608	0.585	0.568
0.1 µM, coculture fibroblast: HPFa	0.918	0.839	0.784	0.691	0.618	0.581	0.507	0.449	0.404
0.1 µM, coculture fibroblast: HUF	0.906	0.815	0.752	0.66	0.593	0.5585	0.5073	0.471	0.438
0.1 µM, coculture fibroblast: Hs5	0.846	0.801	0.758	0.7544	0.6535	0.6298	0.606	0.581	0.587
0.1 µM, coculture fibroblast: Hs27A	0.721	0.636	0.585	0.602	0.477	0.453	0.403	0.362	0.339
0.1 µM, coculture fibroblast: Hs343T	0.793	0.8271	0.757	0.669	0.653	0.613	0.561	0.533	0.512
0.1 µM, coculture fibroblast: WS1	0.816	0.736	0.672	0.59	0.536	0.50413	0.4603	0.429	0.408
1 µM, coculture fibroblast: C12385	0.848	0.832	0.792	0.737	0.673	0.639	0.605	0.569	0.546
1 µM, coculture fibroblast: H6013	0.73	0.667	0.629	0.621	0.548	0.535	0.498	0.474	0.449
1 µM, coculture fibroblast: H6019	0.7885	0.744	0.718	0.673	0.648	0.634	0.584	0.5415	0.509
1 µM, coculture fibroblast: H6076	0.80557	0.78	0.749	0.7101	0.666	0.652	0.627	0.613	0.626
1 µM, coculture fibroblast: H6231	0.7946	0.7731	0.699	0.591	0.609	0.577	0.533	0.498	0.477
1 µM, coculture fibroblast: HADF	0.738	0.695	0.669	0.674	0.586	0.56	0.531	0.507	0.499
1 µM, coculture fibroblast: HCFa	0.777	0.711	0.665	0.641	0.558	0.532	0.493	0.462	0.444
1 µM, coculture fibroblast: HCPF	0.78223	0.768	0.749	0.70691	0.701	0.678	0.653	0.6267	0.6256
1 µM, coculture fibroblast: HHSteC	0.867	0.792	0.748	0.7134	0.62	0.586	0.537	0.498	0.462
1 µM, coculture fibroblast: HMF	0.808	0.8244	0.78994	0.713	0.699	0.67	0.639	0.613	0.601
1 µM, coculture fibroblast: HPFa	0.8938	0.838	0.798	0.696	0.64	0.605	0.545	0.502	0.459
1 µM, coculture fibroblast: HUF	0.8512	0.79	0.755	0.689	0.649	0.622	0.574	0.548	0.514
1 µM, coculture fibroblast: Hs5	0.833	0.845	0.802	0.776	0.701	0.675	0.646	0.624	0.606
1 µM, coculture fibroblast: Hs27A	0.7459	0.704	0.675	0.715	0.575	0.555	0.512	0.476	0.464
1 µM, coculture fibroblast: Hs343T	0.791	0.812	0.751	0.661	0.629	0.598	0.554	0.534	0.514
1 µM, coculture fibroblast: WS1	0.81572	0.7667	0.744	0.69	0.651	0.63	0.597	0.577	0.558
10 µM, coculture fibroblast: C12385	0.873	0.8236	0.7357	0.661	0.601	0.56	0.528	0.491	0.464
10 µM, coculture fibroblast: H6013	0.782	0.707	0.663	0.665	0.572	0.556	0.538	0.529	0.579
10 µM, coculture fibroblast: H6019	0.877	0.8131	0.764	0.718	0.694	0.679	0.634	0.588	0.553
10 µM, coculture fibroblast: H6076	0.8107	0.8872	0.816	0.733	0.723	0.711	0.686	0.678	0.694
10 µM, coculture fibroblast: H6231	0.837	0.951	0.897	0.675	0.7788	0.738	0.7378	0.7736	0.79249
10 µM, coculture fibroblast: HADF	0.812	0.778	0.755	0.787	0.68	0.665	0.641	0.634	0.718
10 µM, coculture fibroblast: HCFa	0.8252	0.753	0.717	0.731	0.6163	0.5847	0.5598	0.5503	0.627
10 µM, coculture fibroblast: HCPF	0.829	0.933	0.904	0.7207	0.8066	0.7892	0.801	0.828	0.83
10 µM, coculture fibroblast: HHSteC	0.868	0.801	0.754	0.731	0.628	0.5948	0.562	0.543	0.567
10 µM, coculture fibroblast: HMF	0.831	0.902	0.838	0.745	0.784	0.766	0.749	0.745	0.752
10 µM, coculture fibroblast: HPFa	0.961	0.924	0.825	0.752	0.681	0.665	0.614	0.573	0.551
10 µM, coculture fibroblast: HUF	0.923	0.882	0.832	0.736	0.702	0.673	0.635	0.61	0.59
10 µM, coculture fibroblast: Hs5	0.835	0.9437	0.8767	0.8036	0.772	0.7345	0.7157	0.717	0.71227
10 µM, coculture fibroblast: Hs27A	0.82	0.786	0.744	0.791	0.642	0.635	0.609	0.598	0.73
10 µM, coculture fibroblast: Hs343T	0.812	0.892	0.815	0.705	0.733	0.711	0.6746	0.6799	0.6698
10 µM, coculture fibroblast: WS1	0.8717	0.808	0.73	0.657	0.611	0.571	0.531	0.495	0.47
100 µM, coculture fibroblast: C12385	0.8925	0.853	0.797	0.749	0.717	0.707	0.685	0.688	0.674
100 µM, coculture fibroblast: H6013	0.764	0.697	0.666	0.666	0.572	0.562	0.54	0.532	0.58
100 µM, coculture fibroblast: H6019	0.908	0.8463	0.8199	0.779	0.768	0.772	0.75	0.73	0.719
100 µM, coculture fibroblast: H6076	0.892	0.9337	0.946	0.901	0.907	0.821	0.872	0.843	0.9136
100 µM, coculture fibroblast: H6231	0.964	0.724	0.744	0.853	0.806	0.917	0.889	0.801	0.805
100 µM, coculture fibroblast: HADF	0.82	0.768	0.758	0.804	0.697	0.682	0.674	0.661	0.77
100 µM, coculture fibroblast: HCFa	0.821	0.74	0.7	0.703	0.588	0.561	0.527	0.498	0.522
100 µM, coculture fibroblast: HCPF	0.908	0.871	0.9229	0.838	0.833	0.881	0.912	0.908	0.888
100 µM, coculture fibroblast: HHSteC	0.8397	0.7944	0.7689	0.75	0.673	0.657	0.628	0.614	0.608
100 µM, coculture fibroblast: HMF	0.8767	0.931	0.952	0.8187	0.897	0.886	0.878	0.888	0.906
100 µM, coculture fibroblast: HPFa	0.965	0.904	0.874	0.813	0.774	0.774	0.749	0.738	0.731
100 µM, coculture fibroblast: HUF	0.956	0.9	0.871	0.806	0.79	0.776	0.758	0.747	0.736
100 µM, coculture fibroblast: Hs5	0.866	0.926	0.894	0.835	0.803	0.786	0.775	0.78	0.769
100 µM, coculture fibroblast: Hs27A	0.805	0.757	0.72389	0.7857	0.635	0.629	0.612	0.605	0.722
100 µM, coculture fibroblast: Hs343T	0.8838	0.94497	0.9105	0.825	0.859	0.85	0.841	0.866	0.856
100 µM, coculture fibroblast: WS1	0.91	0.875	0.856	0.808	0.791	0.773	0.773	0.779	0.785
